Results published in patent US12060400B2, “Peptides for use in immunotherapy against cancers” (Immatics Biotechnologies GmbH, priority 2018, dated 2024).

Tests used:
[1] = test system: HLA molecules of primary tumor and normal tissue samples (cancer entities); test: Identification and label-free LC-MS quantitation of HLA-presented tumor-associated peptides on tissue samples; design: species or system human; settings: cancer entities on whose tumor tissue samples the HLA-presented peptide was found (LC-MS); abbreviations in the footnotes of Table 8a
[2] = test system: source gene exon mRNA in tumor and normal tissue samples; test: Expression profiling (RNAseq) of genes encoding the peptides, tumor versus normal tissues; design: species or system human; settings: for Exon Expression in tumor types vs normal tissue panel: highly over-expressed (++): tumor types in which the peptide's exon is highly over-expressed (++) vs panel of normal tissues; for Exon Expression in tumor types vs normal tissue panel: highly over-expressed (++) / Exon Expression in tumor types vs normal tissue panel: over-expressed (+) / Exon Expression in tumor types vs normal tissue panel: very highly over-expressed (+++): RNAseq, Table 9a; for Exon Expression in tumor types vs normal tissue panel: over-expressed (+): tumor types in which the peptide's exon is over-expressed (+) vs panel of normal tissues; for Exon Expression in tumor types vs normal tissue panel: very highly over-expressed (+++): tumor types in which the peptide's exon is very highly over-expressed (+++) vs panel of normal tissues

58: peptide found in F5 (gene looked up) (IYYSHENLI; listed as Homo sapiens) [compound 58]
Peptide Presentation on cancer entities [1]: CCC, CRC, GC, HCC, NSCLCadeno, NSCLCsquam, OC, PRCA | Exon Expression in tumor types vs normal tissue panel: highly over-expressed (++) [2]: HCC | Exon Expression in tumor types vs normal tissue panel: over-expressed (+) [2]: CCC

202: peptide found in PTPRZ1 (gene looked up) (VYDTMIEKFA; listed as Homo sapiens) [compound 202]
Peptide Presentation on cancer entities [1]: GBM, NSCLCadeno, NSCLCother, NSCLCsquam | Exon Expression in tumor types vs normal tissue panel: highly over-expressed (++) [2]: GBM

312: peptide found in KCNK18 (gene looked up) (YLCMLYALF; listed as Homo sapiens) [compound 312]
Peptide Presentation on cancer entities [1]: CCC, GBC, GC, NHL | Exon Expression in tumor types vs normal tissue panel: over-expressed (+) [2]: GBM

152: peptide found in MMP13 (gene looked up) (MHPGVLAAFLF; listed as Homo sapiens) [compound 152]
Peptide Presentation on cancer entities [1]: NSCLCadeno | Exon Expression in tumor types vs normal tissue panel: highly over-expressed (++) [2]: HNSCC, NSCLCsquam, OSCAR | Exon Expression in tumor types vs normal tissue panel: over-expressed (+) [2]: NSCLCadeno, UBC

29: peptide found in OR51E2 (gene looked up) (IYLLLPPVI; listed as Homo sapiens) [compound 29]
Peptide Presentation on cancer entities [1]: NSCLCadeno, PRCA | Exon Expression in tumor types vs normal tissue panel: very highly over-expressed (+++) [2]: PRCA

221: peptide found in CCR8 (gene looked up) (VFYCLLFVF; listed as Homo sapiens) [compound 221]
Peptide Presentation on cancer entities [1]: CCC, NSCLCsquam | Exon Expression in tumor types vs normal tissue panel: highly over-expressed (++) [2]: NHL | Exon Expression in tumor types vs normal tissue panel: over-expressed (+) [2]: BRCA, CCC, HNSCC, MEL, NSCLCadeno, NSCLCother, NSCLCsquam, OSCAR, UBC

32: peptide found in MMP1 (gene looked up) (FYPEVELNF; listed as Homo sapiens) [compound 32]
Peptide Presentation on cancer entities [1]: CCC, UBC | Exon Expression in tumor types vs normal tissue panel: highly over-expressed (++) [2]: HNSCC, NSCLCadeno, NSCLCsquam, OSCAR, UBC | Exon Expression in tumor types vs normal tissue panel: over-expressed (+) [2]: CRC, GC, MEL, PACA

371: peptide found in NOS2 (gene looked up) (FRSWAVQTF; listed as Homo sapiens) [compound 371]
Peptide Presentation on cancer entities [1]: AML, CRC, GC | Exon Expression in tumor types vs normal tissue panel: over-expressed (+) [2]: CRC

3: peptide found in TRPM8 (gene looked up) (KFLTHDVLTELF; listed as Homo sapiens) [compound 3]
Peptide Presentation on cancer entities [1]: PRCA | Exon Expression in tumor types vs normal tissue panel: highly over-expressed (++) [2]: GBM, SCLC | Exon Expression in tumor types vs normal tissue panel: over-expressed (+) [2]: MEL | Exon Expression in tumor types vs normal tissue panel: very highly over-expressed (+++) [2]: PRCA

333: peptide found in MYO3B (gene looked up) (RYADLLIYTY; listed as Homo sapiens) [compound 333]
Peptide Presentation on cancer entities [1]: UEC | Exon Expression in tumor types vs normal tissue panel: over-expressed (+) [2]: HNSCC, OC, UBC, UEC

147: peptide found in DLL3 (gene looked up) (FPYPSSILSV; listed as Homo sapiens) [compound 147]
Peptide Presentation on cancer entities [1]: GBM | Exon Expression in tumor types vs normal tissue panel: highly over-expressed (++) [2]: GBM, SCLC | Exon Expression in tumor types vs normal tissue panel: over-expressed (+) [2]: MEL

335: peptide found in AGTR2 (gene looked up) (RYQSVIYPF; listed as Homo sapiens) [compound 335]
Peptide Presentation on cancer entities [1]: UEC | Exon Expression in tumor types vs normal tissue panel: over-expressed (+) [2]: NSCLCother, UEC

303: peptide found in ADAMTS12 (gene looked up) (RFLDRGWGF; listed as Homo sapiens) [compound 303]
Peptide Presentation on cancer entities [1]: CRC | Exon Expression in tumor types vs normal tissue panel: highly over-expressed (++) [2]: CCC | Exon Expression in tumor types vs normal tissue panel: over-expressed (+) [2]: BRCA, CRC, GBC, GC, HNSCC, NSCLCadeno, NSCLCother, NSCLCsquam, OSCAR, PACA, UBC

20: peptide found in CYP4Z1 (gene looked up) (ELMAHPFLL; listed as Homo sapiens) [compound 20]
Peptide Presentation on cancer entities [1]: OC, PACA | Exon Expression in tumor types vs normal tissue panel: very highly over-expressed (+++) [2]: BRCA

187: peptide found in LIN28A (gene looked up) (KWFNVRMGFGF; listed as Homo sapiens) [compound 187]
Peptide Presentation on cancer entities [1]: NHL | Exon Expression in tumor types vs normal tissue panel: highly over-expressed (++) [2]: HCC, SCLC | Exon Expression in tumor types vs normal tissue panel: over-expressed (+) [2]: GBC, MEL, OC, UBC, UEC

133: peptide found in TERT (gene looked up) (FFYVTETTF; listed as Homo sapiens) [compound 133]
Peptide Presentation on cancer entities [1]: NHL | Exon Expression in tumor types vs normal tissue panel: highly over-expressed (++) [2]: HCC, NHL | Exon Expression in tumor types vs normal tissue panel: over-expressed (+) [2]: AML, GC, OC, OSCAR, SCLC, UEC

386: peptide found in AR (gene looked up) (YQSRDYYNF; listed as Homo sapiens) [compound 386]
Peptide Presentation on cancer entities [1]: CRC, GBC, GBM, GC, HCC, HNSCC, NSCLCadeno, NSCLCsquam, OC, PRCA, UBC, UEC | Exon Expression in tumor types vs normal tissue panel: over-expressed (+) [2]: BRCA, HCC, PRCA

137: peptide found in QRFPR (gene looked up) (ALFAVCWAPF; listed as Homo sapiens) [compound 137]
Peptide Presentation on cancer entities [1]: NSCLCsquam | Exon Expression in tumor types vs normal tissue panel: highly over-expressed (++) [2]: RCC | Exon Expression in tumor types vs normal tissue panel: over-expressed (+) [2]: NSCLCsquam, OSCAR

293: peptide found in SLC7A11 (gene looked up) (MYAYAGWFY; listed as Homo sapiens) [compound 293]
Peptide Presentation on cancer entities [1]: CRC | Exon Expression in tumor types vs normal tissue panel: highly over-expressed (++) [2]: NSCLCsquam | Exon Expression in tumor types vs normal tissue panel: over-expressed (+) [2]: HNSCC, NSCLCadeno, OSCAR

295: peptide found in APOB (gene looked up) (KYNRQSMTL; listed as Homo sapiens) [compound 295]
Peptide Presentation on cancer entities [1]: HCC | Exon Expression in tumor types vs normal tissue panel: highly over-expressed (++) [2]: HCC

374: peptide found in CCR4 (gene looked up) (MIFAVVVLF; listed as Homo sapiens) [compound 374]
Peptide Presentation on cancer entities [1]: GBC, GBM, GC, MEL, NHL, NSCLCadeno, OC, OSCAR, PRCA | Exon Expression in tumor types vs normal tissue panel: over-expressed (+) [2]: NHL

306: peptide found in SLC7A11 (gene looked up) (RYILEPFFI; listed as Homo sapiens) [compound 306]
Peptide Presentation on cancer entities [1]: BRCA, CCC, CRC, GBC, GBM, GC, HCC, HNSCC, MEL, NHL, NSCLCadeno, NSCLCother, NSCLCsquam, OC, OSCAR, PACA, PRCA, RCC, SCLC, UBC, UEC | Exon Expression in tumor types vs normal tissue panel: highly over-expressed (++) [2]: NSCLCsquam | Exon Expression in tumor types vs normal tissue panel: over-expressed (+) [2]: HNSCC, NSCLCadeno, OSCAR

40: peptide found in ESR1 (gene looked up) (NYPEGAAYEF; listed as Homo sapiens) [compound 40]
Peptide Presentation on cancer entities [1]: NSCLCadeno, OC | Exon Expression in tumor types vs normal tissue panel: highly over-expressed (++) [2]: BRCA, OC, UEC

310: peptide found in MCOLN2 (gene looked up) (EFINGWYVL; listed as Homo sapiens) [compound 310]
Peptide Presentation on cancer entities [1]: HCC | Exon Expression in tumor types vs normal tissue panel: highly over-expressed (++) [2]: CLL | Exon Expression in tumor types vs normal tissue panel: over-expressed (+) [2]: NHL

31: peptide found in MMP1 (gene looked up) (KQMQEFFGL; listed as Homo sapiens) [compound 31]
Peptide Presentation on cancer entities [1]: GC, NSCLCsquam | Exon Expression in tumor types vs normal tissue panel: highly over-expressed (++) [2]: GC, NSCLCadeno, NSCLCsquam, OSCAR, UBC | Exon Expression in tumor types vs normal tissue panel: over-expressed (+) [2]: CRC, MEL, PACA | Exon Expression in tumor types vs normal tissue panel: very highly over-expressed (+++) [2]: HNSCC

85: peptide found in UGT1A3 (gene looked up) (KYLSIPTVFF; listed as Homo sapiens) [compound 85]
Peptide Presentation on cancer entities [1]: CCC, GBC, GC, HCC, NSCLCadeno, PRCA, RCC, UBC | Exon Expression in tumor types vs normal tissue panel: highly over-expressed (++) [2]: HCC

153: peptide found in LOXL4 (gene looked up) (AWSPPATLF; listed as Homo sapiens) [compound 153]
Peptide Presentation on cancer entities [1]: MEL | Exon Expression in tumor types vs normal tissue panel: highly over-expressed (++) [2]: MEL | Exon Expression in tumor types vs normal tissue panel: over-expressed (+) [2]: CCC

236: peptide found in PGR (gene looked up) (LHLYCLNTF; listed as Homo sapiens) [compound 236]
Peptide Presentation on cancer entities [1]: CCC | Exon Expression in tumor types vs normal tissue panel: highly over-expressed (++) [2]: UEC | Exon Expression in tumor types vs normal tissue panel: over-expressed (+) [2]: BRCA

39: peptide found in ENPP3 (gene looked up) (KTYLPTFETTI; listed as Homo sapiens) [compound 39]
Peptide Presentation on cancer entities [1]: UEC | Exon Expression in tumor types vs normal tissue panel: highly over-expressed (++) [2]: RCC | Exon Expression in tumor types vs normal tissue panel: over-expressed (+) [2]: UEC

156: peptide found in F5 (gene looked up) (IYPHGVTFSP; listed as Homo sapiens) [compound 156]
Exon Expression in tumor types vs normal tissue panel: highly over-expressed (++) [2]: HCC | Exon Expression in tumor types vs normal tissue panel: over-expressed (+) [2]: CCC

220: peptide found in CCR8 (gene looked up) (TYATHVTEI; listed as Homo sapiens) [compound 220]
Exon Expression in tumor types vs normal tissue panel: highly over-expressed (++) [2]: NHL | Exon Expression in tumor types vs normal tissue panel: over-expressed (+) [2]: BRCA, CCC, HNSCC, MEL, NSCLCadeno, NSCLCother, NSCLCsquam, OSCAR, UBC

SEQ ID No.: 39: peptide found in ENPP3 (gene looked up) (KTYLPTFETTI; listed as Homo sapiens)
expression profile of source gene, over-expressed in different cancer samples ([2]; FIGS. 2A-2Q, RNAseq FPKM, tumor versus normal samples): over-expressed

342: peptide found in NPSR1 (gene looked up) (MYGIVIRTI; listed as Homo sapiens) [compound 342]
Exon Expression in tumor types vs normal tissue panel: over-expressed (+) [2]: CRC, GBC, GC, PACA

For some assays here: Expression grades refer to the transcript from which the peptide derives; gene names, where given, were looked up from the sequence.
